Source: patent US5190922A (priority 1991, dated 1993)
Part of at least one peptide drawing is inferred or uncertain, most often the ends.

Target: T1, C5a Receptor (Homo sapiens, UniProt P21730)
T1 construct: 2.5-25 μg/mL of purified PMNL membrane fragments; from tissue; host or cells: polymorphonuclear leukocyte (PMNL) membrane fragments
T1 sequence (P21730 1-350): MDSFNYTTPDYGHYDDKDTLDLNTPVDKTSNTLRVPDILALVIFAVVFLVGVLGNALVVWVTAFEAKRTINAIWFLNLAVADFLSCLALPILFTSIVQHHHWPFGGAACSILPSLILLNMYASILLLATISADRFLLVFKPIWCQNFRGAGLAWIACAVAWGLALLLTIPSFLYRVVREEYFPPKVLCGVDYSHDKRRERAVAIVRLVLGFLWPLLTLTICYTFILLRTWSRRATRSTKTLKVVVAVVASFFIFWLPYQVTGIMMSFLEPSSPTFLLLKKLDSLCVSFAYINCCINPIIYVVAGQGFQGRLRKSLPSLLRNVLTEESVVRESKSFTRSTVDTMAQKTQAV
Assay: Anaphylatoxin receptor binding Ki determination (inhibition of 125I-C5a binding to PMNL membrane fragments)
Settings: 0.03-1 nM 125I-C5a, 2.5-25 μg/mL purified PMNL membrane fragments, filtration; read-out: Ki (In vitro C5a Receptor Binding Potency)
Method: Specific inhibition of C5 a binding activity of representative compounds of the present invention was measured using 0.03-1 nM ^125 I-C5 a with 2.5-25 μg/mL of purified PMNL membrane fragments (Borregaard, N.; Heiple, J. M.; Simons, E. R.; and Clark, R. A. J. Cell. Biol. 1983, 97, 52-61.). Free and membrane-bound ligand were separated by filtration.

Row | SMILES | Ki [µM]
1 | N=C(N)NCCC[C@@H](NC(=O)[C@H](Cc1ccccc1)NC(=O)[C@@H](CC1CCCCC1)NC(=O)[C@@H]1CCCN1C(=O)[C@H](CCCCN)NC(=O)CCc1ccccc1)C(=O)O [Example 28, Hydrocinnamoyl-Lysyl-Prolyl-{(2R)-2-Amino-3-cyclohexylpropanoyl}-Phenylalanyl-DArginyl-OH] | 0.1
2 | N=C(N)NCCC[C@@H](NC(=O)[C@H](Cc1ccccc1)NC(=O)[C@@H](CC1CCCCC1)NC(=O)[C@@H]1CCCN1C(=O)[C@H](CCCCNC(=O)c1cccnc1)NC(=O)CCc1ccccc1)C(=O)O [Example 104, Hydrocinnamoyl-Lysyl(N-epsilon-nicotyl)-Prolyl-{(2R)-2-Amino-3-cyclohexylpropanoyl}-Phenylalanyl-DArginyl-OH] | 17
